Data from US6972178.
No constants are given. Whether binding was seen depends on the method and setting. Some entries that bind do so weakly or less than the wild type. Sequences can lack the tags named with a protein.

Chains of the proteins cited; added tags and fusions are not shown. Lines headed by an entry give the natural chain unless they say otherwise; changes in a name come on top.
UniProt P04386: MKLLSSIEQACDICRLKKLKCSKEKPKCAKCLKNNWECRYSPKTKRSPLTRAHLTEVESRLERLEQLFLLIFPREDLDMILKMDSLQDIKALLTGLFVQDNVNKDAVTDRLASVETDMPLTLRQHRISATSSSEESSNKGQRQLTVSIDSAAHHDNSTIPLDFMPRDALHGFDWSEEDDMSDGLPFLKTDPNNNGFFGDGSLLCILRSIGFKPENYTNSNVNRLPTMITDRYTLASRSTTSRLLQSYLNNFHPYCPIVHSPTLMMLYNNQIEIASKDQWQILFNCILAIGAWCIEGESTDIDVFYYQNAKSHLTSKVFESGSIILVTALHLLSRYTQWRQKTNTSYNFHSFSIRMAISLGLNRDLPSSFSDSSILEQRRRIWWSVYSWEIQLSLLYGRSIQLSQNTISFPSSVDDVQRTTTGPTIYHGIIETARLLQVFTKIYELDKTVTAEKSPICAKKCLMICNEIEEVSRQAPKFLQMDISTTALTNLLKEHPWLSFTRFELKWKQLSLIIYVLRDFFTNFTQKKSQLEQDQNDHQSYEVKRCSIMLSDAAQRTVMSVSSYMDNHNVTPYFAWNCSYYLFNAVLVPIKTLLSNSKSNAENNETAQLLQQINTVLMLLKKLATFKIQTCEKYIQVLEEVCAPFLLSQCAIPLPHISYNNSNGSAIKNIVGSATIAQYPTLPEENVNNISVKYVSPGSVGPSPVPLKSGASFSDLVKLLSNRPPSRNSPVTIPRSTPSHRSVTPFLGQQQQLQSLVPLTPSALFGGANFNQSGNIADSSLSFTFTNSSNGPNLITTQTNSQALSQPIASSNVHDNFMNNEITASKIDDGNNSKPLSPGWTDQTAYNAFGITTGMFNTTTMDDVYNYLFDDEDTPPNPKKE
UniProt Q04752: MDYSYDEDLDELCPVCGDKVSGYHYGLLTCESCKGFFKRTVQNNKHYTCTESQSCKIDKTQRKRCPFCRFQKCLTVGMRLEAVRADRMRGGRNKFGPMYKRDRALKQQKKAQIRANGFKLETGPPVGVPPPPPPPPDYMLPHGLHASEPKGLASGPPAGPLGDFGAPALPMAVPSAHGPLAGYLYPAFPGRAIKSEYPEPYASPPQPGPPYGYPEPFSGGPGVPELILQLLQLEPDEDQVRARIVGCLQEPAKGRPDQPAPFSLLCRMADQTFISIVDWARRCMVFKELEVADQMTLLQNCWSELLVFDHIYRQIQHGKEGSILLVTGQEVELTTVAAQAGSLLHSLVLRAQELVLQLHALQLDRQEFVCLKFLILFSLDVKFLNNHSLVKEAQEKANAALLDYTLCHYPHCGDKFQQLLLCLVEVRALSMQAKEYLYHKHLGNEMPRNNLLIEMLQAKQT

Legend:
[1] = molecular target: T1, Gal4DBD-SF1 fusion protein (bovine steroidogenic factor 1, pGBT9-SF1) (bovine) (UniProt P04386+Q04752); test: yeast two-hybrid, β-galactosidase activity
[2] = molecular target: Gal4DBD-ERRα1 fusion protein (estrogen related receptor α-1, pGBT9-ERRα-1) (UniProt P04386); test: yeast two-hybrid, β-galactosidase activity
[3] = molecular target: T1, Gal4DBD-SF1 fusion protein (bovine steroidogenic factor 1, pGBT9-SF1) (bovine); test: yeast two-hybrid, β-galactosidase activity (FIG. 5B)
[4] = molecular target: Gal4DBD fusion of ERα ligand-binding domain, amino acids 274 to 595 (pGBT9-ER274-595) (UniProt P04386); test: yeast two-hybrid, β-galactosidase activity, with ligand
[5] = molecular target: Wild type bovine SF1 (steroidogenic factor 1), from pSG5 vector (bovine) (UniProt Q04752); test: GST pull-down of in vitro translated 35S-SF1 (FIGS. 3A-B, lane 4)
[6] = molecular target: Wild type bovine SF1 (steroidogenic factor 1), from pSG5 vector (bovine) (UniProt Q04752); test: GST pull-down of in vitro translated 35S-SF1, SDS-PAGE and autoradiography

binding [1] | binding [2] | binding [3] | binding [4] | binding [5] | binding [6] | Binder
binds | binds | binds | binds |  |  | NYAGAKFSDPPSPSVLPKPPSHW (peptide, not shown: large carriers) [Gal4AD-PNRC278-300 fusion protein]
 |  |  |  | binds | binds | NYAGAKFSDPPSPSVLPKPPSHW (peptide, not shown: a dimerising Fc or GST) [GST-PNRC278-300]
